This note sets out measurements from paper PMC3424240.

Results are given in words; binding and its absence hold for the method and conditions named. In cells and extracts the contact can be indirect. These calls come from enrichment with a bait or labelling near it, and not all partners need be listed. Sequences can lack the tags named with a protein.

For the assay, the target named is T1, FLAG-Setd1b (aa 225–1671) (human) (UniProt Q9UPS6).
T1 sequence: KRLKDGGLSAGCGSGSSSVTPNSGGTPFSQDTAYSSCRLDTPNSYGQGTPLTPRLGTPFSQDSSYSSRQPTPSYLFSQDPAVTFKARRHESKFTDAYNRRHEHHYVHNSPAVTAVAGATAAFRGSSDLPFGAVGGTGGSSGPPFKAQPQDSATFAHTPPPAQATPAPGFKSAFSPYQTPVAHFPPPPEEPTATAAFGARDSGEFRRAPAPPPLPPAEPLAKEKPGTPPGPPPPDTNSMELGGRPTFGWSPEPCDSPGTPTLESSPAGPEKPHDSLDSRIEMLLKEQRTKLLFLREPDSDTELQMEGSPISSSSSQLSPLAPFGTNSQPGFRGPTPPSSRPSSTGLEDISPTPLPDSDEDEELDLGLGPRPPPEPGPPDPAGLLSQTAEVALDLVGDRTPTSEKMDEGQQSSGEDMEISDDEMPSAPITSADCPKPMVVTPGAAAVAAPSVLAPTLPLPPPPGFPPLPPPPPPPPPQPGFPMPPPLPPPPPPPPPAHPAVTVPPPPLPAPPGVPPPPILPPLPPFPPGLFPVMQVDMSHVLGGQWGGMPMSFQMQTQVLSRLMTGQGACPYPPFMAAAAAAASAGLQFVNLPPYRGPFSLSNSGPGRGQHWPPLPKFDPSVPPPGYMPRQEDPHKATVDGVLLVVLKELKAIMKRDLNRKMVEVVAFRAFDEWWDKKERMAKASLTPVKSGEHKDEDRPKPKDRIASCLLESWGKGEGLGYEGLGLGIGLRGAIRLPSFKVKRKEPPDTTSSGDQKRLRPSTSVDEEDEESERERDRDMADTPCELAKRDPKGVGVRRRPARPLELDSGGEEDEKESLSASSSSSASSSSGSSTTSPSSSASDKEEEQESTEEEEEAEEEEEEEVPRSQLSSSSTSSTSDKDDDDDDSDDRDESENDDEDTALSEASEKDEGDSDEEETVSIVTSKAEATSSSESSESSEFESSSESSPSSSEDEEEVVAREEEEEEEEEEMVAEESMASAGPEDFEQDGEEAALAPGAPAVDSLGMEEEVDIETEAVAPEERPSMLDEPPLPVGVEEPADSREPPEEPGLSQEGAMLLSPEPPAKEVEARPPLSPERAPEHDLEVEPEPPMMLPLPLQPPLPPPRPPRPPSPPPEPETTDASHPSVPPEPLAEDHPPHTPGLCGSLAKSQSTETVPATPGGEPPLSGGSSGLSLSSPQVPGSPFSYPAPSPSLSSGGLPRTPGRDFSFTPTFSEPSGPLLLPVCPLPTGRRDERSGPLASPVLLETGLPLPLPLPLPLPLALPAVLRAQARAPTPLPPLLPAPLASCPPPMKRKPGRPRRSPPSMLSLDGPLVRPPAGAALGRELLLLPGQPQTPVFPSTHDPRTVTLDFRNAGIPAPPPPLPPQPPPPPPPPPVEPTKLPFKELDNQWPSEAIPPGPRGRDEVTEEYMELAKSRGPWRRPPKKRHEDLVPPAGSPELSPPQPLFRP
Briefly: affinity purification with mass spectrometry; FLAG immunoprecipitation (anti-FLAG M2 agarose, 3 h) from nuclear extracts of doxycycline-induced T-REx HEK293 lines, elution with FLAG peptide, SDS-PAGE, Coomassie bands identified by LTQ ion trap mass spectrometry.

B1: endogenous Rbm15 (protein, UniProt Q96T37 1-977)
chain: MRTAGRDPVPRRSPRWRRAVPLCETSAGRRVTQLRGDDLRRPATMKGKERSPVKAKRSRGGEDSTSRGERSKKLGGSGGSNGSSSGKTDSGGGSRRSLHLDKSSSRGGSREYDTGGGSSSSRLHSYSSPSTKNSSGGGESRSSSRGGGGESRSSGAASSAPGGGDGAEYKTLKISELGSQLSDEAVEDGLFHEFKRFGDVSVKISHLSGSGSGDERVAFVNFRRPEDARAAKHARGRLVLYDRPLKIEAVYVSRRRSRSPLDKDTYPPSASVVGASVGGHRHPPGGGGGQRSLSPGGAALGYRDYRLQQLALGRLPPPPPPPLPRDLERERDYPFYERVRPAYSLEPRVGAGAGAAPFREVDEISPEDDQRANRTLFLGNLDITVTESDLRRAFDRFGVITEVDIKRPSRGQTSTYGFLKFENLDMSHRAKLAMSGKIIIRNPIKIGYGKATPTTRLWVGGLGPWVPLAALAREFDRFGTIRTIDYRKGDSWAYIQYESLDAAHAAWTHMRGFPLGGPDRRLRVDFADTEHRYQQQYLQPLPLTHYELVTDAFGHRAPDPLRGARDRTPPLLYRDRDRDLYPDSDWVPPPPPVRERSTRTAATSVPAYEPLDSLDRRRDGWSLDRDRGDRDLPSSRDQPRKRRLPEESGGRHLDRSPESDRPRKRHCAPSPDRSPELSSSRDRYNSDNDRSSRLLLERPSPIRDRRGSLEKSQGDKRDRKNSASAERDRKHRTTAPTEGKSPLKKEDRSDGSAPSTSTASSKLKSPSQKQDGGTAPVASASPKLCLAWQGMLLLKNSNFPSNMHLLQGDLQVASSLLVEGSTGGKVAQLKITQRLRLDQPKLDEVTRRIKVAGPNGYAILLAVPGSSDSRSSSSSAASDTATSTQRPLRNLVSYLKQKQAAGVISLPVGGNKDKENTGVLHAFPPCEFSQQFLDSPAKALAKSEEDYLVMIIVRGFGFQIGVRYENKKRENLALTLL
Regarding B1, the binding entry was “binds”.
